In patent publication US20110166020A1, “Imidazole and Triazole Compounds, Use Thereof and Agents Containing Said Compounds” (BASF SE, priority 2008, published 2011):
Some results were stated once for a whole list of compounds, not compound by compound.

Columns and labels:
Phakopsora pachyrhizi = assay: Curative activity against soybean rust caused by Phakopsora pachyrhizi (greenhouse, soybean seedlings); type: in vivo; settings: 600 ppm active compound, curative spray 24 h after inoculation, rated after 14 days, untreated plants 90% infected
Puccinia recondita = assay: Protective activity against Puccinia recondita on wheat (brown rust of wheat), greenhouse; type: in vivo; settings: 600 ppm active compound, protective spray one day before inoculation, wheat seedlings, rated after a further 7 days; untreated plants 90% infected

CC(C)(C)[C@@H](O)[C@@H](CCCCOc1ncc(C(F)(F)F)cc1Cl)n1cncn1 [I.A1a, (RR,SS)-8-(3-chloro-5-trifluoromethylpyridin-2-yloxy)-2,2-dimethyl-4-[1,2,4]triazol-1-yloctan-3-ol]
infection (extent of rust fungus development on the leaves, determined visually in % infection) (Phakopsora pachyrhizi): at most 15%

CC(C)(C)[C@@H](O)[C@H](CCCn1ccc2cccc(Cl)c21)n1cncn1 (racemic) [I.A2b, (RS, SR)-7-(7-chloroindol-1-yl)-2,2-dimethyl-4-[1,2,4]triazol-1-ylheptan-3-ol]
infection (extent of rust fungus development on the leaves, determined visually in % infection) (Phakopsora pachyrhizi): at most 15%

CC(C)(C)[C@@H](O)[C@H](CCCCOc1ncc(C(F)(F)F)cc1Cl)n1cncn1 (racemic) [I.A1b, (RS,SR)-8-(3-chloro-5-trifluoromethylpyridin-2-yloxy)-2,2-dimethyl-4-[1,2,4]triazol-1-yloctan-3-ol]
infection (extent of rust fungus development on the leaves, determined visually) (Puccinia recondita): at most 15% | infection (extent of rust fungus development on the leaves, determined visually in % infection) (Phakopsora pachyrhizi): at most 15%

CC(C)(C)[C@@H](O)[C@@H](CCCn1ccc2cccc(Cl)c21)n1cncn1 [I.A2a, (RR, SS)-7-(7-chloroindo1-1-yl)-2,2-dimethyl-4-[1,2,4]triazol-1-ylheptan-3-ol]
infection (extent of rust fungus development on the leaves, determined visually in % infection) (Phakopsora pachyrhizi): at most 15%
